In patent US20110135647A1:
No constants are given. Whether binding was seen depends on the method and setting. In cells and extracts the contact can be indirect. Some entries that bind do so weakly or less than the wild type. Where a sequence is shown, tags or fusion partners need not be part of it.

Legend:
[1] = target: T1, p47 protein (approximately 47 kDa protein pulled down, identified by MALDI-TOF) (human) (UniProt Q9UNZ2); assay: in vitro protein pull-down, silver staining, MALDI-TOF (data not shown)
T1 sequence: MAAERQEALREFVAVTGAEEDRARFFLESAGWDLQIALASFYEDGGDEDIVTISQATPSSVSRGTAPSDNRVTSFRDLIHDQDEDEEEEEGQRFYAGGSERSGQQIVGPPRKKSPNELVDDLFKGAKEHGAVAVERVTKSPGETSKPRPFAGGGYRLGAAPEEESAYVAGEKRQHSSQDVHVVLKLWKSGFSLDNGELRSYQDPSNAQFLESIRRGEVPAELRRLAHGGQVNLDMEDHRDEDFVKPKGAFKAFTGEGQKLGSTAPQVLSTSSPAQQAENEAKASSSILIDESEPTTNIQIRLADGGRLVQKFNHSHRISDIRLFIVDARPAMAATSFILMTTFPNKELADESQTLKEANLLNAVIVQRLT

[2] = target: T2, HA-tagged PBK/TOPK (HA-PBK/TOPK), wild type (human) (UniProt Q96KB5); assay: in vitro pull-down: lysate of HA-PBK/TOPK-transfected COS-7 cells mixed with GST-p47, GST-beads, anti-HA blot
T2 sequence: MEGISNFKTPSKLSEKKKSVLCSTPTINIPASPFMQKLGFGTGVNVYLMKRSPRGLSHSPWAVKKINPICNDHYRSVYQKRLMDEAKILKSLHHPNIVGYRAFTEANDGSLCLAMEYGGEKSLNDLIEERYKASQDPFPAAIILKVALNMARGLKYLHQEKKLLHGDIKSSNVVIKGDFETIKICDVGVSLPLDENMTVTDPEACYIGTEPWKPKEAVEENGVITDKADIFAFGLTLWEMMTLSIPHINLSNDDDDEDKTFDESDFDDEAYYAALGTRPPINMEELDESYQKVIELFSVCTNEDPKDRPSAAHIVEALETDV

[3] = target: GST-p47/myc-p97 complex (human) (UniProt Q5RBG3); assay: co-immunoprecipitation with myc-tag antibody from COS-7 cells transfected with the three constructs
[4] = target: GST-p47/myc-p97 complex (human) (UniProt Q5RBG3); assay: co-immunoprecipitation with anti-GST or anti-myc antibody from COS-7 cells transfected with the three constructs

B1: GST-tagged PBK/TOPK (GST-PBK/TOPK) recombinant protein (enzyme, not shown: a dimerising Fc or GST)
chain: MEGISNFKTPSKLSEKKKSVLCSTPTINIPASPFMQKLGFGTGVNVYLMKRSPRGLSHSPWAVKKINPICNDHYRSVYQKRLMDEAKILKSLHHPNIVGYRAFTEANDGSLCLAMEYGGEKSLNDLIEERYKASQDPFPAAIILKVALNMARGLKYLHQEKKLLHGDIKSSNVVIKGDFETIKICDVGVSLPLDENMTVTDPEACYIGTEPWKPKEAVEENGVITDKADIFAFGLTLWEMMTLSIPHINLSNDDDDEDKTFDESDFDDEAYYAALGTRPPINMEELDESYQKVIELFSVCTNEDPKDRPSAAHIVEALETDV
binding [1]: binds

B2: GST-tagged p47 (GST-p47) recombinant protein (protein, not shown: a dimerising Fc or GST)
chain: MAAERQEALREFVAVTGAEEDRARFFLESAGWDLQIALASFYEDGGDEDIVTISQATPSSVSRGTAPSDNRVTSFRDLIHDQDEDEEEEEGQRFYAGGSERSGQQIVGPPRKKSPNELVDDLFKGAKEHGAVAVERVTKSPGETSKPRPFAGGGYRLGAAPEEESAYVAGEKRQHSSQDVHVVLKLWKSGFSLDNGELRSYQDPSNAQFLESIRRGEVPAELRRLAHGGQVNLDMEDHRDEDFVKPKGAFKAFTGEGQKLGSTAPQVLSTSSPAQQAENEAKASSSILIDESEPTTNIQIRLADGGRLVQKFNHSHRISDIRLFIVDARPAMAATSFILMTTFPNKELADESQTLKEANLLNAVIVQRLT
binding [2]: binds

B3: HA-tagged PBK/TOPK (HA-PBK/TOPK), wild type (enzyme, not shown: small tags and cut ends)
chain: MEGISNFKTPSKLSEKKKSVLCSTPTINIPASPFMQKLGFGTGVNVYLMKRSPRGLSHSPWAVKKINPICNDHYRSVYQKRLMDEAKILKSLHHPNIVGYRAFTEANDGSLCLAMEYGGEKSLNDLIEERYKASQDPFPAAIILKVALNMARGLKYLHQEKKLLHGDIKSSNVVIKGDFETIKICDVGVSLPLDENMTVTDPEACYIGTEPWKPKEAVEENGVITDKADIFAFGLTLWEMMTLSIPHINLSNDDDDEDKTFDESDFDDEAYYAALGTRPPINMEELDESYQKVIELFSVCTNEDPKDRPSAAHIVEALETDV
binding [3]: binds | binding [4]: binds
